# In the supplement of paper PMC8728848:
# This is one part of the list.
# Legend:
# Assay in all cases: glycan array binding signal (z-score within array); higher = stronger binding
# Settings in all cases: glycan notation: IUPAC condensed, linker removed
# [1] = target: GlcNAc(b1-3)Gal(b1-4)GlcNAc(b1-3)Gal(b1-4)GlcNAc(b1-3)GalNAc
# Outline: (§1)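 Glycan array data came from 3228 arrays in the Consortium for Functional Glycomics database, and only arrays with an available protein sequence were kept. Glycan names were put into IUPAC-condensed notation, and columns mapping to the same glycan were averaged. The binding signal is a within-array Z-score, averaged across arrays of one protein sequence run at different concentrations or buffers and across linkers. A negative Z-score can be read as non-binding.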
# [2] = target: GlcNAc(b1-3)Gal(b1-4)GlcNAc(b1-3)GalNAc
# Outline: as §1
# [3] = target: GlcNAc(b1-3)Gal(b1-4)GlcNAc(b1-3)[GlcNAc(b1-3)Gal(b1-4)GlcNAc(b1-3)]GalNAc
# Outline: as §1
# [4] = target: GlcNAc(b1-3)Gal(b1-4)GlcNAc(b1-6)[Gal(b1-3)]GalNAc
# Outline: as §1
# [5] = target: GlcNAc(b1-3)Gal(b1-4)GlcNAc(b1-6)[GlcNAc(b1-3)Gal(b1-3)]GalNAc
# Outline: as §1
# [6] = target: GlcNAc(b1-3)Gal(b1-4)GlcNAc(b1-6)[GlcNAc(b1-3)]Gal(b1-4)GlcNAc
# Outline: as §1
# [7] = target: GlcNAc(b1-3)GalNAc
# Outline: as §1
# [8] = target: GlcNAc(b1-3)Man
# Outline: as §1
# [9] = target: GlcNAc(b1-3)[GlcNAc(b1-4)][GlcNAc(b1-6)]GlcNAc
# Outline: as §1
# [10] = target: GlcNAc(b1-3)[GlcNAc(b1-6)]Gal(b1-4)GlcNAc
# Outline: as §1
# [11] = target: GlcNAc(b1-3)[GlcNAc(b1-6)]GalNAc
# Outline: as §1
# [12] = target: GlcNAc(b1-4)Gal(b1-4)GlcNAc
# Outline: as §1
# [13] = target: GlcNAc(b1-4)GlcNAc
# Outline: as §1
# [14] = target: GlcNAc(b1-4)GlcNAc(b1-4)GlcNAc
# Outline: as §1
# [15] = target: GlcNAc(b1-4)GlcNAc(b1-4)GlcNAc(b1-4)GlcNAc(b1-4)GlcNAc
# Outline: as §1
# [16] = target: GlcNAc(b1-4)GlcNAc(b1-4)GlcNAc(b1-4)GlcNAc(b1-4)GlcNAc(b1-4)GlcNAc
# Outline: as §1
# [17] = target: GlcNAc(b1-4)[GlcNAc(b1-6)]GalNAc
# Outline: as §1
# [18] = target: GlcNAc(b1-6)Gal(b1-4)GlcNAc
# Outline: as §1
# [19] = target: GlcNAc(b1-6)GalNAc
# Outline: as §1
# [20] = target: GlcNAc6S(b1-3)Gal(b1-4)GlcNAc
# Outline: as §1
# [21] = target: Kdn(a2-3)Gal(b1-3)GalNAc
# Outline: as §1
# [22] = target: Kdn(a2-3)Gal(b1-3)GlcNAc
# Outline: as §1
# [23] = target: Kdn(a2-3)Gal(b1-4)Glc
# Outline: as §1
# [24] = target: Kdn(a2-3)Gal(b1-4)GlcNAc
# Outline: as §1
# [25] = target: Kdn(a2-3)Gal(b1-4)[Fuc(a1-3)]GlcNAc
# Outline: as §1
# [26] = target: Kdn(a2-6)Gal(b1-4)GlcNAc
# Outline: as §1
# [27] = target: Man(a1-2)Man(a1-2)Man(a1-3)Man
# Outline: as §1
# [28] = target: Man(a1-2)Man(a1-2)Man(a1-6)[Man(a1-3)]Man
# Outline: as §1
# [29] = target: Man(a1-2)Man(a1-3)Man
# Outline: as §1
# [30] = target: Man(a1-2)Man(a1-3)[Man(a1-2)Man(a1-6)]Man
# Outline: as §1
# [31] = target: Man(a1-2)Man(a1-3)[Man(a1-2)Man(a1-6)]Man(a1-6)[Man(a1-2)Man(a1-2)Man(a1-3)]Man
# Outline: as §1
# [32] = target: Man(a1-2)Man(a1-3)[Man(a1-2)Man(a1-6)]Man(a1-6)[Man(a1-2)Man(a1-2)Man(a1-3)]Man(b1-4)GlcNAc(b1-4)GlcNAc
# Outline: as §1
# [33] = target: Man(a1-2)Man(a1-3)[Man(a1-6)]Man(a1-6)[Man(a1-2)Man(a1-3)]Man(b1-4)GlcNAc(b1-4)GlcNAc
# Outline: as §1
# [34] = target: Man(a1-2)Man(a1-6)[Man(a1-3)]Man(a1-6)[Man(a1-2)Man(a1-2)Man(a1-3)]Man
# Outline: as §1
# [35] = target: Man(a1-2)Man(a1-6)[Man(a1-3)]Man(a1-6)[Man(a1-2)Man(a1-2)Man(a1-3)]Man(b1-4)GlcNAc(b1-4)GlcNAc
# Outline: as §1
# [36] = target: Man(a1-3)[Man(a1-6)]Man
# Outline: as §1
# [37] = target: Man(a1-3)[Man(a1-6)]Man(a1-6)[Man(a1-2)Man(a1-3)]Man(b1-4)GlcNAc(b1-4)GlcNAc
# Outline: as §1
# [38] = target: Man(a1-3)[Man(a1-6)]Man(a1-6)[Man(a1-3)]Man
# Outline: as §1
# [39] = target: Man(a1-3)[Man(a1-6)]Man(a1-6)[Man(a1-3)]Man(b1-4)GlcNAc(b1-4)GlcNAc
# Outline: as §1
# [40] = target: Man(a1-3)[Man(a1-6)]Man(b1-4)GlcNAc(b1-4)GlcNAc
# Outline: as §1
# [41] = target: Man(a1-3)[Man(a1-6)]Man(b1-4)GlcNAc(b1-4)[Fuc(a1-6)]GlcNAc
# Outline: as §1
# [42] = target: Man(a1-6)Man
# Outline: as §1
# [43] = target: Man(b1-4)GlcNAc
# Outline: as §1
# [44] = target: MurNAc(b1-4)GlcNAc
# Outline: as §1
# [45] = target: Neu5Ac(a2-3)Gal
# Outline: as §1
binder,measurement,setting,value
Clone646PsrP (Streptococcus pneumoniae) (protein) MDHHHHHHHHASENLYFQGAPAINASLNIAKSETKVYTGEGVDSVYRVPIYYKLKVTNDGSKLTFTYTVTYVNPKTNDLGNISSMRPGYSIYNSGTSTQTMLTLGSDLGKPSGVKNYITDKNGRQVLSYNTSTMTTQGSGYTWGNGAQMNGFFAKKGYGLTSSWTVPITGTDTSFTFTPYAARTDRIGINYFNGGGKVVESSTTSQSLSQSKSLSVSAS,glycan array binding signal (z-score),[1],-0.876
same,glycan array binding signal (z-score),[2],-0.586
same,glycan array binding signal (z-score),[3],-0.686
same,glycan array binding signal (z-score),[4],-0.537
same,glycan array binding signal (z-score),[5],-0.627
same,glycan array binding signal (z-score),[6],-0.875
same,glycan array binding signal (z-score),[7],0.429
same,glycan array binding signal (z-score),[8],2.55
same,glycan array binding signal (z-score),[9],0.396
same,glycan array binding signal (z-score),[10],-0.849
same,glycan array binding signal (z-score),[11],-0.132
same,glycan array binding signal (z-score),[12],0.742
same,glycan array binding signal (z-score),[13],0.726
same,glycan array binding signal (z-score),[14],0.715
same,glycan array binding signal (z-score),[15],0.251
same,glycan array binding signal (z-score),[16],0.043
same,glycan array binding signal (z-score),[17],-0.205
same,glycan array binding signal (z-score),[18],1.04
same,glycan array binding signal (z-score),[19],0.842
same,glycan array binding signal (z-score),[20],0.294
same,glycan array binding signal (z-score),[21],1.7
same,glycan array binding signal (z-score),[22],-0.826
same,glycan array binding signal (z-score),[23],0.154
same,glycan array binding signal (z-score),[24],0.815
same,glycan array binding signal (z-score),[25],0.135
same,glycan array binding signal (z-score),[26],0.94
same,glycan array binding signal (z-score),[27],-0.403
same,glycan array binding signal (z-score),[28],0.669
same,glycan array binding signal (z-score),[29],0.973
same,glycan array binding signal (z-score),[30],-1.02
same,glycan array binding signal (z-score),[31],-0.947
same,glycan array binding signal (z-score),[32],0.328
same,glycan array binding signal (z-score),[33],-0.756
same,glycan array binding signal (z-score),[34],-0.217
same,glycan array binding signal (z-score),[35],1.6
same,glycan array binding signal (z-score),[36],0.991
same,glycan array binding signal (z-score),[37],1.06
same,glycan array binding signal (z-score),[38],3.32
same,glycan array binding signal (z-score),[39],0.509
same,glycan array binding signal (z-score),[40],-0.444
same,glycan array binding signal (z-score),[41],-1.07
same,glycan array binding signal (z-score),[42],4.74
same,glycan array binding signal (z-score),[43],0.837
same,glycan array binding signal (z-score),[44],0.037
same,glycan array binding signal (z-score),[45],-0.198

# A section from the list above:
binder,measurement,setting,value
Clone646PsrP (Streptococcus pneumoniae) (protein) MDHHHHHHHHASENLYFQGAPAINASLNIAKSETKVYTGEGVDSVYRVPIYYKLKVTNDGSKLTFTYTVTYVNPKTNDLGNISSMRPGYSIYNSGTSTQTMLTLGSDLGKPSGVKNYITDKNGRQVLSYNTSTMTTQGSGYTWGNGAQMNGFFAKKGYGLTSSWTVPITGTDTSFTFTPYAARTDRIGINYFNGGGKVVESSTTSQSLSQSKSLSVSAS,glycan array binding signal (z-score),[5],-0.627
same,glycan array binding signal (z-score),[6],-0.875
